Values from PubChem BioAssay AID1508597 (Cure First, 2020).
Aim: 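Knock-downs altering ovarian cancer cell survival with or without PARP inhibitor rucaparib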 (primary screen). System: human ovarian carcinoma lines grown from tumours: OCI-P5x (papillary serous) and OCI-C5x (clear cell). Reagents: siRNA pool against human genes, 1.25 pmol siRNA per well. Timing: 72 h or 96 h, depending on the cell culture. Treatment: rucaparib 20 µM (about IC30) or vehicle, present until read-out. Measured: 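Luminescent ATP-based viability assay read 72 or 96 h after transfection, depending on culture, given as normalised percent viability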. Direction: viability, normalised: higher = more viable cells remaining. Hit rule: 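Active when normalised viability falls below 80 percent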. Calls: active = viability under 80%; inactive = viability 80% or more.
Here is a random part of about 2,100 reagents tested. 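Calls flag viability under 80% in either arm, not effects specific to rucaparib; the reference for percent is not stated.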 A number with no mark means an inactive call. Some reagents were tested in more than one well and are listed for each. No sequences are given here. The record does not give: the 100% reference.

gene knocked down | rucaparib or vehicle | cell line | technical replicate | viability, normalised (%)
DDX25 (GeneID 29118) | Rucaparib | OCI-C5x (clear cell) | 1 | 52.9 (active)
DDX25 (GeneID 29118) | Rucaparib | OCI-C5x (clear cell) | 2 | 41.2 (active)
DDX25 (GeneID 29118) | Rucaparib | OCI-C5x (clear cell) | 3 | 36.4 (active)
DDX25 (GeneID 29118) | Rucaparib | OCI-P5x (serous) | 1 | 54.6 (active)
DDX25 (GeneID 29118) | Rucaparib | OCI-P5x (serous) | 2 | 61.1 (active)
DDX25 (GeneID 29118) | Rucaparib | OCI-P5x (serous) | 3 | 51.9 (active)
DDX25 (GeneID 29118) | Vehicle | OCI-C5x (clear cell) | 1 | 43.4 (active)
DDX25 (GeneID 29118) | Vehicle | OCI-C5x (clear cell) | 2 | 40.3 (active)
DDX25 (GeneID 29118) | Vehicle | OCI-C5x (clear cell) | 3 | 40.1 (active)
DDX25 (GeneID 29118) | Vehicle | OCI-P5x (serous) | 1 | 56.9 (active)
DDX25 (GeneID 29118) | Vehicle | OCI-P5x (serous) | 2 | 51.4 (active)
DDX25 (GeneID 29118) | Vehicle | OCI-P5x (serous) | 3 | 65.5 (active)
AK4 (GeneID 205) | Rucaparib | OCI-C5x (clear cell) | 1 | 64.1 (active)
AK4 (GeneID 205) | Rucaparib | OCI-C5x (clear cell) | 2 | 66.5 (active)
AK4 (GeneID 205) | Rucaparib | OCI-C5x (clear cell) | 3 | 68.9 (active)
AK4 (GeneID 205) | Rucaparib | OCI-P5x (serous) | 1 | 81
AK4 (GeneID 205) | Rucaparib | OCI-P5x (serous) | 2 | 69 (active)
AK4 (GeneID 205) | Rucaparib | OCI-P5x (serous) | 3 | 69.1 (active)
AK4 (GeneID 205) | Vehicle | OCI-C5x (clear cell) | 1 | 57.1 (active)
AK4 (GeneID 205) | Vehicle | OCI-C5x (clear cell) | 2 | 63.1 (active)
AK4 (GeneID 205) | Vehicle | OCI-C5x (clear cell) | 3 | 70.8 (active)
AK4 (GeneID 205) | Vehicle | OCI-P5x (serous) | 1 | 68.2 (active)
AK4 (GeneID 205) | Vehicle | OCI-P5x (serous) | 2 | 71.5 (active)
AK4 (GeneID 205) | Vehicle | OCI-P5x (serous) | 3 | 77.5 (active)
NQO2 (GeneID 4835) | Rucaparib | OCI-C5x (clear cell) | 1 | 69.8 (active)
NQO2 (GeneID 4835) | Rucaparib | OCI-C5x (clear cell) | 2 | 66.5 (active)
NQO2 (GeneID 4835) | Rucaparib | OCI-C5x (clear cell) | 3 | 65.4 (active)
NQO2 (GeneID 4835) | Rucaparib | OCI-P5x (serous) | 1 | 77.5 (active)
NQO2 (GeneID 4835) | Rucaparib | OCI-P5x (serous) | 2 | 85.2
NQO2 (GeneID 4835) | Rucaparib | OCI-P5x (serous) | 3 | 83.6
NQO2 (GeneID 4835) | Vehicle | OCI-C5x (clear cell) | 1 | 69.5 (active)
NQO2 (GeneID 4835) | Vehicle | OCI-C5x (clear cell) | 2 | 67.4 (active)
NQO2 (GeneID 4835) | Vehicle | OCI-C5x (clear cell) | 3 | 55.6 (active)
NQO2 (GeneID 4835) | Vehicle | OCI-P5x (serous) | 1 | 91
NQO2 (GeneID 4835) | Vehicle | OCI-P5x (serous) | 2 | 86.5
NQO2 (GeneID 4835) | Vehicle | OCI-P5x (serous) | 3 | 80
KTI12 (GeneID 112970) | Rucaparib | OCI-C5x (clear cell) | 1 | 48.5 (active)
KTI12 (GeneID 112970) | Rucaparib | OCI-C5x (clear cell) | 2 | 43.1 (active)
KTI12 (GeneID 112970) | Rucaparib | OCI-C5x (clear cell) | 3 | 49.9 (active)
KTI12 (GeneID 112970) | Rucaparib | OCI-P5x (serous) | 1 | 61.6 (active)
KTI12 (GeneID 112970) | Rucaparib | OCI-P5x (serous) | 2 | 59.9 (active)
KTI12 (GeneID 112970) | Rucaparib | OCI-P5x (serous) | 3 | 62.3 (active)
KTI12 (GeneID 112970) | Vehicle | OCI-C5x (clear cell) | 1 | 61.3 (active)
KTI12 (GeneID 112970) | Vehicle | OCI-C5x (clear cell) | 2 | 71.1 (active)
KTI12 (GeneID 112970) | Vehicle | OCI-C5x (clear cell) | 3 | 70.2 (active)
KTI12 (GeneID 112970) | Vehicle | OCI-P5x (serous) | 1 | 65.3 (active)
KTI12 (GeneID 112970) | Vehicle | OCI-P5x (serous) | 2 | 60.2 (active)
KTI12 (GeneID 112970) | Vehicle | OCI-P5x (serous) | 3 | 75.4 (active)
UHRF1 (GeneID 29128) | Rucaparib | OCI-C5x (clear cell) | 1 | 54.4 (active)
UHRF1 (GeneID 29128) | Rucaparib | OCI-C5x (clear cell) | 1 | 56.1 (active)
UHRF1 (GeneID 29128) | Rucaparib | OCI-C5x (clear cell) | 2 | 43.6 (active)
UHRF1 (GeneID 29128) | Rucaparib | OCI-C5x (clear cell) | 2 | 40.8 (active)
UHRF1 (GeneID 29128) | Rucaparib | OCI-C5x (clear cell) | 3 | 48.8 (active)
UHRF1 (GeneID 29128) | Rucaparib | OCI-C5x (clear cell) | 3 | 42 (active)
UHRF1 (GeneID 29128) | Rucaparib | OCI-P5x (serous) | 1 | 43.4 (active)
UHRF1 (GeneID 29128) | Rucaparib | OCI-P5x (serous) | 1 | 51.2 (active)
UHRF1 (GeneID 29128) | Rucaparib | OCI-P5x (serous) | 2 | 57.3 (active)
UHRF1 (GeneID 29128) | Rucaparib | OCI-P5x (serous) | 2 | 47.9 (active)
UHRF1 (GeneID 29128) | Rucaparib | OCI-P5x (serous) | 3 | 53.2 (active)
UHRF1 (GeneID 29128) | Rucaparib | OCI-P5x (serous) | 3 | 44.5 (active)
UHRF1 (GeneID 29128) | Vehicle | OCI-C5x (clear cell) | 1 | 49.6 (active)
UHRF1 (GeneID 29128) | Vehicle | OCI-C5x (clear cell) | 1 | 35.8 (active)
UHRF1 (GeneID 29128) | Vehicle | OCI-C5x (clear cell) | 2 | 63 (active)
UHRF1 (GeneID 29128) | Vehicle | OCI-C5x (clear cell) | 2 | 47.8 (active)
UHRF1 (GeneID 29128) | Vehicle | OCI-C5x (clear cell) | 3 | 52.7 (active)
UHRF1 (GeneID 29128) | Vehicle | OCI-C5x (clear cell) | 3 | 47.3 (active)
UHRF1 (GeneID 29128) | Vehicle | OCI-P5x (serous) | 1 | 50.1 (active)
UHRF1 (GeneID 29128) | Vehicle | OCI-P5x (serous) | 1 | 77.3 (active)
UHRF1 (GeneID 29128) | Vehicle | OCI-P5x (serous) | 2 | 65.2 (active)
UHRF1 (GeneID 29128) | Vehicle | OCI-P5x (serous) | 2 | 56.2 (active)
UHRF1 (GeneID 29128) | Vehicle | OCI-P5x (serous) | 3 | 63.9 (active)
UHRF1 (GeneID 29128) | Vehicle | OCI-P5x (serous) | 3 | 55.2 (active)

Laid out differently: 4 of the entries above.
gene knocked down,rucaparib or vehicle,cell line,technical replicate,"viability, normalised (%)"
DDX25 (GeneID 29118),Vehicle,OCI-C5x (clear cell),1,43.4 (active)
DDX25 (GeneID 29118),Vehicle,OCI-C5x (clear cell),2,40.3 (active)
DDX25 (GeneID 29118),Vehicle,OCI-C5x (clear cell),3,40.1 (active)
DDX25 (GeneID 29118),Vehicle,OCI-P5x (serous),1,56.9 (active)
